In paper PMC10579421 one finds binding data, which are given here for one substance.

Chains of the proteins cited; added tags and fusions are not shown.
UniProt O15379: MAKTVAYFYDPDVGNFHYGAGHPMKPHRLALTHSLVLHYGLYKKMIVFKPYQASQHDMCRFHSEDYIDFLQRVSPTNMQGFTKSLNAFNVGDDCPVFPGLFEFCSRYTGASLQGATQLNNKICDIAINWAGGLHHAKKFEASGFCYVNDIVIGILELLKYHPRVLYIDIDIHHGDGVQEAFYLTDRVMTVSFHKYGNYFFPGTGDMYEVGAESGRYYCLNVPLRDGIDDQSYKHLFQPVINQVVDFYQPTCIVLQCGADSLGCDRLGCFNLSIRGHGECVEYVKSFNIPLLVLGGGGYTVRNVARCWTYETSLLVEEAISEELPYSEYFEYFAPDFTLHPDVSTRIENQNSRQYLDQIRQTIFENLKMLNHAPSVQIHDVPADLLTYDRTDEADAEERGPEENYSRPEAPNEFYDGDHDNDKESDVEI

The target in the assay is T1, JunB (human (endogenous in THP-1)) (UniProt P17275).
T1 sequence: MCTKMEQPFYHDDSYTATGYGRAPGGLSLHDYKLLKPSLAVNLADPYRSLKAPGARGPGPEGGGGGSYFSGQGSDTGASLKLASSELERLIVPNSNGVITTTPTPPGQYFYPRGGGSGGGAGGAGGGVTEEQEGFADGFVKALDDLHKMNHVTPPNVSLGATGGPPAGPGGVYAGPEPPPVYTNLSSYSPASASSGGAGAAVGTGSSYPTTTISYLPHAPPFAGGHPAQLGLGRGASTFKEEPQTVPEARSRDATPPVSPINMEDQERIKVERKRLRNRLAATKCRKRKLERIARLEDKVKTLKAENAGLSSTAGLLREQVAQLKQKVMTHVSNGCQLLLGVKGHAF
Description: co-IP.

Results are given in words; binding and its absence hold for the method and conditions named. In cells and extracts the contact can be indirect. Some binding calls cover weakened binding; strength is not graded here.

In the case of “HDAC3 (from UniProt O15379 1-428) (enzyme)”, the binding result is given as “binds”.
